Our source for the binding values is PMC9065199.

By UniProt entry, the sequences of proteins in these tests, tags left out. Residues count along the entry.
UniProt O95299, residues 36-355: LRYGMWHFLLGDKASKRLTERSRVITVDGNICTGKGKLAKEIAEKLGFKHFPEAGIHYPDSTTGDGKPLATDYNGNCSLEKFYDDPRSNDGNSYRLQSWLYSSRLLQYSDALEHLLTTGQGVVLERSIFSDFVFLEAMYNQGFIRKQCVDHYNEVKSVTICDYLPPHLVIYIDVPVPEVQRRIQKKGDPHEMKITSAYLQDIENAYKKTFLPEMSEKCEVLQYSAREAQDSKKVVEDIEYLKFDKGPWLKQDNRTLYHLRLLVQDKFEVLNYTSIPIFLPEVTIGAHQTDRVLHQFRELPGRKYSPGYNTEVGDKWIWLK

One test has as its target T1, AGK peptide 1 (59Q-92G) (UniProt Q53H12).
T1 sequence (peptide, biotin at the N-terminal): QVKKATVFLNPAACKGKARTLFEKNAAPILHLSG
The test can be described thus: ELISA; synthetic AGK peptides labelled with biotin at the N-terminal, tested against NDUFS2 and NDUFA10 (n = 6). In general terms: In an ELISA, binding on a coated surface is turned into a signal by an enzyme label.

Another test has as its target T2, AGK peptide 2 (93M-120I) (UniProt Q53H12).
T2 sequence (peptide, biotin at the N-terminal): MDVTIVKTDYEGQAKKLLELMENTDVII
The test is described as above.

The target of test [1] is T3, Acylglycerol kinase (AGK), full-length, Flag-tagged (UniProt Q53H12).
T3 sequence: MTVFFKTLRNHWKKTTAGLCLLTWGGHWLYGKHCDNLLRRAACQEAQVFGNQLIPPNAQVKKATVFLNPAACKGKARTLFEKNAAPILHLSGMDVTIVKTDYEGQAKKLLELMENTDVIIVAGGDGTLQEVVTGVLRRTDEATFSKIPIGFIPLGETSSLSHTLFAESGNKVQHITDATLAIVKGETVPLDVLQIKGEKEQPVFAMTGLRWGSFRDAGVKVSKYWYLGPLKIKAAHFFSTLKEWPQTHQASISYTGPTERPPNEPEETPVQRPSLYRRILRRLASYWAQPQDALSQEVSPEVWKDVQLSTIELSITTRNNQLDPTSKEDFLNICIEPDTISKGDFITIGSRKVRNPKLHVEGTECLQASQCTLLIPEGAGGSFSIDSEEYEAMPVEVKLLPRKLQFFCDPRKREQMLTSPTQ
Nature of the test: co-IP; lysates of HEK293T cells transfected with NDUFS2-HA, NDUFA10-HA and AGK-Flag or AGK-1-Flag.

Test [2] concerns the target T4, AGK-1 (1-202P), N-terminal truncated form of AGK, Flag-tagged (UniProt Q53H12).
T4 sequence: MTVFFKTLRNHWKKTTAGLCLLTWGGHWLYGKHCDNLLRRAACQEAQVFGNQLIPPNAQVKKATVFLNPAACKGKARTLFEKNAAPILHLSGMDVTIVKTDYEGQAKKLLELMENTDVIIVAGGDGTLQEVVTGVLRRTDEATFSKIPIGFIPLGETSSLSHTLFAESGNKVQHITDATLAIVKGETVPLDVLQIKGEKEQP
The test is described as above.

Results are given in words; binding and its absence hold for the method and conditions named. For some of these results: In cells and extracts the contact can be indirect. Some entries that bind do so weakly or less than the wild type. For some of these results: Tags and fused reporters may be left off the sequences shown.

As to “NDUFA10 (as used in the peptide ELISA) (from UniProt O95299 36-355)”, the binding entry with AGK peptide 1 (59Q-92G) and with AGK peptide 2 (93M-120I) was “binds” in each case.
Take NDUFA10-HA (from UniProt O95299 36-355): the binding entry in test [1] and in test [2] was “binds” in each case.
